The campaign covered roughly 320,000 compounds. About 22,000 (6.9%) were called active. Inconclusive results, whose numbers are uncertain, are shown with a selection of clear calls. Calls follow the shape of the dose curve; as a rule, active = well fitted inhibition curve with a large enough effect; inconclusive = small, poorly fitted or top-dose-only effect, or another doubt; inactive = no such curve, though single readings can be large or run the other way. Potencies of inconclusive entries are doubtful fits and often do not repeat.
Test: Primary qHTS for delayed death inhibitors of the malarial parasite plastid, 96 hour incubation
Details: P. falciparum luciferase reporter growth; series mostly up to 28.7 µM
Summary of the method: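 P. falciparum expressing integrated firefly luciferase grown in erythrocytes (2% hematocrit, 0.05% parasitemia final) with compounds for 96 hours at 37 C, 5% CO2. Growth inhibition read as loss of luminescence after adding luciferase detection reagent.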
Potency is read from the fitted curve at half-maximal effect.

Row | Structure (SMILES) | Potency
1 | O=C(CCN1CCc2ccccc21)c1ccc2c(c1)OCCO2 | active: 2.08 µM
2 | Cc1ccc(CN(Cc2ccc(C)o2)C(=S)NCC(=O)O)cc1 | inconclusive: 18.5 µM [inhibitor, single point]
3 | CC(NC(=O)c1ccc(F)cc1)c1ccccc1 (stereo not given) | inconclusive: 0.0029 µM [inhibitor, full curve, poor fit]
4 | COc1ccc(-c2c(C)nn(-c3ccccc3)c2N)cc1 | inactive
5 | CCOC(=O)c1c(CN2CCN(CCO)CC2)n(C)c2cc(Br)c(OC)cc12 | inactive
6 | O=c1cc(O)c(-c2ccc(Cl)cc2)c(Cl)[nH]1 | inactive
7 | COc1ccc(OC)c(-n2nnnc2SCC(=O)Nc2ccccc2OC)c1 | inconclusive: 14.7 µM [inhibitor, partial curve, poor fit]
8 | Cc1nn(C(=O)CCC(=O)NCCc2ccccc2)c2ccccc12 | inconclusive: 4.15 µM [inhibitor, full curve]
9 | COc1ccc(OC)c(N2C(=O)NC(=O)/C(=C\c3ccc([N+](=O)[O-])s3)C2=O)c1 | inactive
10 | CCCCS(=O)(=O)/C=C\C1C2C=CC(C2)C1S(=O)(=O)CCCC (stereo not given) | inconclusive: 13.1 µM [inhibitor, single point]
11 | Cc1ccc(NC(=S)NCC2CCCO2)cc1 (stereo not given) | inactive
12 | ClC(Cl)c1nnc(-c2ccccc2)c(-c2c[nH]c3ccccc23)n1 | active: 9.28 µM
13 | COc1ccc(NC(=O)C(Cc2ccccc2)n2cccc2)cc1OC (stereo not given) | inconclusive: 11.7 µM [inhibitor, single point]
14 | O=[N+]([O-])c1cc(C(F)(F)F)cc([N+](=O)[O-])c1NCCCNc1ccc([N+](=O)[O-])c2cccnc12 | active: 4.15 µM
15 | CC(=O)Oc1ccc2c(C)cc(=O)[nH]c2c1 | inactive
16 | Cc1cc(C)c(C)c(S(=O)(=O)N2CCN(C(=O)CNC(=O)c3ccco3)CC2)c1C | inactive
17 | C=CCN(Cc1ccc(OC)c(OC)c1)C(=O)c1cc2cc(F)ccc2[nH]1 | inconclusive: 18.5 µM [inhibitor, single point]
18 | O=C(COc1ccc(Cl)cc1)NCc1nnc(SCC(=O)NCCc2ccccc2)o1 | inconclusive: 9.28 µM [inhibitor, partial curve, poor fit]
19 | Cc1cc(C)n2nc(NCc3ccccc3)nc2n1 | inconclusive: 4.15 µM [inhibitor, partial curve]
20 | COc1cccc(CNC(=O)CCNS(=O)(=O)c2ccc3[nH]c(=O)oc3c2)c1 | inconclusive: 11.7 µM [inhibitor, single point]
21 | COC(=O)CN(c1ccccc1)S(=O)(=O)c1cc(Br)ccc1OC | inconclusive: 2.08 µM [inhibitor, partial curve, poor fit]
22 | CC(NC(=O)NC(=O)c1ccc(Cl)cc1)c1ccccc1 (stereo not given) | inconclusive: 9.28 µM [inhibitor, single point]
23 | COc1ccc(C2c3cc(OC)c(OC)cc3CCN2C2CC(=O)N(c3ccccc3)C2=O)cc1OC (stereo not given) | inconclusive: 18.5 µM [inhibitor, single point]
24 | CC(CNC(=O)CCc1nnc(CCC2CCCCC2)o1)c1ccccc1 (stereo not given) | inactive
25 | Cc1cc(C)nc(/N=C(\N)Nc2cccc([N+](=O)[O-])c2)n1 | active: 10.4 µM

Row | Structure (SMILES) | Potency
26 | COc1ccc(C(C)NC(=S)NC2CCCCC2)cc1OC (stereo not given) | active: 10.4 µM
27 | COc1ccc(/C=N/Nc2cc(C)nc(N3CCOCC3)n2)c(OC)c1 | inactive
28 | O=C(NC1CCCc2ccccc21)c1ccccc1 (stereo not given) | inactive
29 | CS(=O)(=O)N(CC(=O)N1CCOCC1)c1ccccc1 | inactive
30 | C/C(=N\NC(=O)c1cc(C)nc2ccccc12)c1ccc([N+](=O)[O-])cc1 | inactive
31 | CN(C)c1cc[n+](/C(C(=S)Nc2ccc(SC(F)F)cc2)=C(/[O-])c2ccccc2)cc1 | active: 2.08 µM
32 | Cc1c(Cc2ccccc2)c(=O)oc2c(C)c(OCC(=O)Nc3ccc(C#N)cc3)ccc12 | active: 2.08 µM
33 | COc1ccc(-c2c3c(nc4sc5c(=O)[nH]c(C)nc5c24)CCC3)cc1 | inconclusive: 1.04 µM [inhibitor, partial curve, poor fit]
34 | O=C(Nc1cccc(Cl)c1N1CCOCC1)c1ccc([N+](=O)[O-])o1 | inconclusive: 18.5 µM [inhibitor, single point]
35 | COc1cc(C2CC(=O)c3cnc(NC(C)=O)nc3C2)cc(OC)c1OC (stereo not given) | inconclusive: 18.5 µM [inhibitor, single point]
36 | CCN(CC)c1ccc(/C=N/NC(=O)c2ccco2)cc1 | inconclusive: 18.5 µM [inhibitor, single point]
37 | O=C(O)[C@H](O)[C@@H](O)[C@H](O)[C@H](O)CO | inactive
38 | COc1ccc(C(C(=O)NC2CCCC2)N2CCc3ccccc32)cc1 (stereo not given) | inconclusive: 18.5 µM [inhibitor, single point]
39 | CCc1nc2ccccc2c(C(=O)OCC(=O)C(C)(C)C)c1C | inconclusive: 1.17 µM [inhibitor, partial curve, poor fit]
40 | Cc1ccc(Cn2nnnc2CN2CCC(O)(c3ccccc3F)CC2)cc1 | inactive
41 | COc1ccc2cc(C(N)=O)/c(=N/NC(=O)c3ccco3)oc2c1 | inactive
42 | Cc1ccc(N2CC(C(=O)N(C)CC(=O)Nc3ccc(Cl)c(C(F)(F)F)c3)CC2=O)cc1 (stereo not given) | inconclusive: 18.5 µM [inhibitor, single point]
43 | CCCNC(=O)c1ccccc1NC(=O)c1ccccc1N(C)S(=O)(=O)c1ccccc1 | inconclusive: 2.08 µM [inhibitor, partial curve, poor fit]
44 | CCOC(=O)c1[nH]c2ccc(Br)cc2c1NC(=O)CCN1CCCC(C)(C)C1 | inconclusive: 13.1 µM [inhibitor, single point]
45 | CCN(CC)S(=O)(=O)c1ccc(C)c(C)c1 | inconclusive: 9.28 µM [inhibitor, single point]
46 | COc1cc(/C=N/n2nnnc2Nc2ccccc2)cc(OC)c1OC | inconclusive: 11.7 µM [inhibitor, single point]
47 | CCc1ccccc1NC(=O)CCN1C(=O)c2ccccc2C1=O | inconclusive: 0.0029 µM [inhibitor, full curve]
48 | CC(C)CNC(=O)c1cccc(NC(=O)C(C)Oc2ccccc2)c1 (stereo not given) | inconclusive: 13.1 µM [inhibitor, partial curve, poor fit]
49 | CC(C)Cn1c(CN2CCN(C)C(CCO)C2)nc2ccccc21 (stereo not given) | active: 9.28 µM
50 | NC(=O)COc1ccc2oc(=O)cc(-c3cc4ccccc4o3)c2c1 | inactive

Part of the list above in order of molar mass, ascending:
Row | Structure (SMILES) | Potency
34 | O=C(Nc1cccc(Cl)c1N1CCOCC1)c1ccc([N+](=O)[O-])o1 | inconclusive: 18.5 µM [inhibitor, single point]
46 | COc1cc(/C=N/n2nnnc2Nc2ccccc2)cc(OC)c1OC | inconclusive: 11.7 µM [inhibitor, single point]
27 | COc1ccc(/C=N/Nc2cc(C)nc(N3CCOCC3)n2)c(OC)c1 | inactive

Further results.

Row | Structure (SMILES) | Potency
51 | O=C(Nc1cccc(Cl)c1)OCc1cncs1 | inactive
52 | COc1cccc(/C=N/NC(=O)C(=O)Nc2ccccc2OC(F)(F)C(F)F)c1 | inconclusive: 18.5 µM [inhibitor, single point]
53 | Cc1ccc(N2C(=O)C3C(C2=O)N2C(c4cccs4)C4C(=O)N(c5ccc(C)cc5)C(=O)C4N2C3c2cccs2)cc1 (stereo not given) | active: 1.85 µM
54 | C=CCN1C(=O)c2ccccc2Sc2ccc(C(=O)NCC(OC)OC)cc21 | inconclusive: 11.7 µM [inhibitor, single point]
55 | CCc1nn(CC(=O)NCCCN2CCN(C)CC2)c(=O)c2cc3sc(C)cc3n12 | inconclusive: 18.5 µM [inhibitor, single point]
56 | Cc1cccc(N2C(=O)CC(N3CCN(Cc4ccc(Cl)cc4)CC3)C2=O)c1 (stereo not given) | inconclusive: 9.28 µM [inhibitor, partial curve, poor fit]
57 | COc1cccc(/C=C2\SC(=O)N(CCC(=O)N3CCC(C(=O)O)CC3)C2=O)c1 | inconclusive: 18.5 µM [inhibitor, single point]
58 | CCCCc1nnc(SCC(=O)NC2CCCCC2)n1C | inactive
59 | CCCC(=O)Nc1ccc2c(c1)nc(CCN1CCCCC1)n2C | inactive
60 | O=C(Nc1ccc(S(=O)(=O)N2CCCCC2)cc1)C1CC1 | inactive
61 | Cc1cc(SCc2ccccc2C)nc(=O)[nH]1 | inconclusive: 14.7 µM [inhibitor, single point]
62 | COc1cccc(-n2c(SC)nnc2-c2c[nH]c3ccccc23)c1 | active: 4.65 µM
63 | COc1ccc(NC(=O)CSc2ccccn2)c([N+](=O)[O-])c1 | inactive
64 | CCOc1ccccc1NC(=O)C1CCCN1C(=O)OCc1ccccc1 (stereo not given) | active: 9.28 µM
65 | CC(C(=O)N1CCc2ccccc21)N1CCN(Cc2ccccc2)CC1 (stereo not given) | inconclusive: 13.1 µM [inhibitor, single point]
66 | CC(C)CC(NC(=O)/C(=C\c1ccco1)NC(=O)c1ccco1)C(=O)O (stereo not given) | inconclusive: 7.38 µM [inhibitor, partial curve, poor fit]
67 | CN(CC1CCCN(CCc2ccc(Cl)cc2)C1)C(=O)c1ccc2nc[nH]c2c1 (stereo not given) | inconclusive: 18.5 µM [inhibitor, single point]
68 | Cc1ccc(C(=O)N/C(=C\c2ccc(-c3ccc(Br)cc3)o2)C(=O)NCCCN(C)C)cc1 | inconclusive: 18.5 µM [inhibitor, partial curve, poor fit]
69 | N=C1c2ccccc2CN1c1ccc(S(=O)(=O)N2CCCCC2)cc1 | inactive
70 | Nc1nonc1-c1noc(-c2ccccc2)n1 | inactive
71 | CC(=O)/C=C/n1c(=S)oc2ccccc21 | inactive
72 | Cc1ccc(C)c(C(=O)NC(C)c2ccc(-n3ccnc3)cc2)c1 (stereo not given) | inconclusive: 7.38 µM [inhibitor, partial curve, poor fit]
73 | O=C(CSc1ccc(C(F)(F)F)cc1[N+](=O)[O-])NCCOc1ccccc1 | active: 13.1 µM
74 | CCC(=O)N(Cc1cc(=O)[nH]c2ccccc12)c1ccc(OC)cc1 | inactive
75 | O=C(CNC(=O)COc1ccccc1)NCc1cccnc1 | inactive
